{"source": "PubChem BioAssay AID504842", "about": "(National Center for Advancing Translational Sciences (NCATS), 2011)", "note": "About 100 (0.03%) of roughly 330,000 compounds were called active. Inconclusive means that the source gave no clear call. Such entries were picked first, then a sample of the others. The call rests on the fitted dose curve; in most records, active means well fitted inhibition curve with a large enough effect; inconclusive means small, poorly fitted or top-dose-only effect; inactive means flat fitted curve, though single readings scatter. Potencies beside an inconclusive call are fits to weak or partial responses and may not hold up. Potency means the concentration at half of the fitted maximal effect.", "data": [{"system": "Chaperonin Mm-Cpn (Methanococcus maripaludis)", "assay": "Inhibitors of TCP-1 ring complex (TRiC) of Methanococcus maripaludis (MmCpn): qHTS; further: nearly all actives have a fitted effect of over 80% in size;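 on Potency: enzyme at 25 nM with ATP substrate at 10 µM during the reaction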", "details": "purified Mm-Cpn ATPase, ADP Transcreener TR-FRET; series mostly up to 76.9 µM", "summary_of_the_method": "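ATPase read-out: TR-FRET ADP immunoassay (anti-ADP Eu cryptate vs ADP-d2), ex 320 nm, em 590/665 nm; signal drops as ADP forms. Enzyme 25 nM, ATP 10 uM, 30 min at 37°C after 10 min compound preincubation.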", "values": [{"smiles": "COc1ccc(C(=O)NCC(=O)OCc2cccc(Br)c2)cc1", "Potency": "inconclusive: 316 µM [inhibitor, partial curve, poor fit]"}, {"smiles": "CCc1ccc(-c2nc(C)c(CCO)c(=O)[nH]2)cc1", "Potency": "inconclusive: 22.4 µM [inhibitor, single point]"}, {"smiles": "COc1ccc2[nH]c(C(=O)Nc3ccc(F)cc3Br)cc2c1", "Potency": "inconclusive: 63.1 µM [inhibitor, partial curve]"}, {"smiles": "CC1CCc2c(sc3ncnc(NCCCOC(C)C)c23)C1", "note": "(stereo not given)", "Potency": "inconclusive: 11.2 µM [inhibitor, single point]"}, {"smiles": "CCCC(=O)Nc1nc(C)c(-c2csc(Nc3ccccc3OC)n2)s1", "Potency": "inconclusive: 70.8 µM [inhibitor, single point]"}, {"smiles": "CCOC(=O)C(C#N)=C1CCN(Cc2ccccc2)CC1", "Potency": "inactive"}, {"smiles": "O=C(CN1CCOCC1)NCCNS(=O)(=O)c1ccccc1", "Potency": "inconclusive: 28.2 µM [inhibitor, single point]"}, {"smiles": "Cc1cc2cc(CNC(=O)c3ccc(S(=O)(=O)N4CCCC4)cc3)ccc2n1C", "Potency": "inconclusive: 100 µM [inhibitor, partial curve]"}, {"smiles": "CCCn1c(N)c(C(=O)CSc2nnc3n2CCCCC3)c(=O)n(C)c1=O", "Potency": "inconclusive: 100 µM [inhibitor, single point]"}, {"smiles": "Cc1ccc(/C=N\\NC(=O)C2CC(=O)N(c3ccccc3)C2)o1", "note": "(stereo not given)", "Potency": "inconclusive: 50.1 µM [inhibitor, single point]"}, {"smiles": "COCc1c(C(=O)N2CCN(Cc3ccc(C#N)cc3)CC2)oc2ccccc12", "Potency": "inactive"}, {"smiles": "CC(=O)c1ccc(N2CCN(S(=O)(=O)c3cc(-c4cc(C)no4)ccc3C(C)C)CC2)cc1", "Potency": "inconclusive: 89.1 µM [inhibitor, single point]"}, {"smiles": "Cc1cc(C(=O)NCCCN2CCN(c3cc(Cl)ccc3C)CC2)n(-c2ccccc2)n1", "Potency": "inactive"}, {"smiles": "CSc1nc(N)nc2c1ncn2CC(=O)NCCNc1ccc([N+](=O)[O-])cn1", "Potency": "inconclusive: 22.4 µM [inhibitor, single point]"}, {"smiles": "CCCCc1c(C)c(C#N)c2[nH]c3ccccc3n2c1=O", "Potency": "inconclusive: 12.6 µM [inhibitor, single point]"}, {"smiles": "O=C(c1cc(Br)c[nH]1)N1CCSCC1", "Potency": "inconclusive: 79.4 µM [inhibitor, single point]"}, {"smiles": "Cc1ncc([N+](=O)[O-])n1CCO", "Potency": "inactive"}, {"smiles": "COc1ccc(NC(=O)Nc2ccc(F)c(Cl)c2)cc1", "Potency": "inactive"}, {"smiles": "COc1ccc(-c2ccc(C#N)c(SCC(=O)OCc3ccccc3)n2)cc1OC", "Potency": "inconclusive: 100 µM [inhibitor, single point]"}, {"smiles": "Cc1ccc(OCCC(=O)NNC(=O)c2ccc(Br)cc2)cc1", "Potency": "inactive"}, {"smiles": "Cc1nc2ccccc2c(=O)n1NC(=O)Cc1ccc(Br)cc1", "Potency": "inconclusive: 100 µM [inhibitor, single point]"}, {"smiles": "CCn1c(/C=C/c2ccc(F)cc2)nc2ccccc2c1=O", "Potency": "inactive"}, {"smiles": "CCC(c1nnnn1Cc1ccccc1)N1CCN(C(=O)c2ccco2)CC1", "note": "(stereo not given)", "Potency": "inactive"}, {"smiles": "COc1cc(OC)cc(C(=O)OCc2cc3ccccc3[nH]c2=O)c1", "Potency": "inconclusive: 15.8 µM [inhibitor, single point]"}, {"smiles": "NC(=O)C(c1ccc(Cl)cc1)c1ccc(Sc2ccccc2)nn1", "note": "(stereo not given)", "Potency": "inconclusive: 100 µM [inhibitor, single point]"}, {"smiles": "Cc1ccc(N(CC(=O)Nc2ccc(-c3nc4ccc(C)cc4s3)cc2)S(C)(=O)=O)cc1", "Potency": "inconclusive: 355 µM [inhibitor, partial curve, poor fit]"}, {"smiles": "Cn1cnnc1Sc1ccc(C(F)(F)F)cc1[N+](=O)[O-]", "Potency": "inactive"}, {"smiles": "CC(=O)Nc1cc(OC(C)=O)c2nonc2c1OC(C)=O", "Potency": "inconclusive: 56.2 µM [inhibitor, partial curve, poor fit]"}, {"smiles": "COc1cc(OC)cc(C(=O)Nc2nnc(NC(=S)Nc3ccccc3)s2)c1", "Potency": "inactive"}, {"smiles": "N/C(=N\\OC(=O)COc1ccc(Br)cc1)c1cccnc1", "Potency": "inconclusive: 11.2 µM [inhibitor, single point]"}, {"smiles": "O=C(CC(c1ccc(F)cc1)c1ccco1)N1CCOCC1", "note": "(stereo not given)", "Potency": "inactive"}, {"smiles": "O=C1OCCN1C(=O)[C@H]1[C@H](c2ccc(Cl)cc2)C(c2cccc(Cl)c2)=NN1c1ccccc1", "Potency": "inconclusive: 89.1 µM [inhibitor, partial curve]"}, {"smiles": "COc1ccccc1N1CCN(C(=O)c2ccc3[nH]c4c(c3c2)CCCC4)CC1", "Potency": "inactive"}, {"smiles": "Nc1cc(N)nc(SCC(=O)c2ccc3c(c2)NC(=O)CO3)n1", "Potency": "inconclusive: 22.4 µM [inhibitor, single point]"}, {"smiles": "CCOC(=O)Cc1csc(NC(=O)COc2ccc3c(C)cc(=O)oc3c2)n1", "Potency": "active: 44.7 µM"}, {"smiles": "O=C(COC(=O)C1CC(=O)N(c2nc(-c3ccccc3)cs2)C1)c1ccccc1", "note": "(stereo not given)", "Potency": "inconclusive: 70.8 µM [inhibitor, single point]"}, {"smiles": "Cc1ccccc1CC1(CO)CCCN(Cc2ccccc2Cl)C1", "note": "(stereo not given)", "Potency": "inconclusive: 56.2 µM [inhibitor, single point]"}, {"smiles": "CCNC(=S)NCc1ccc(F)cc1", "Potency": "inconclusive: 14.1 µM [inhibitor, single point]"}, {"smiles": "CCN(CC)S(=O)(=O)c1cccc(NC(=O)COC(=O)c2cncc(Br)c2)c1", "Potency": "inconclusive: 70.8 µM [inhibitor, single point]"}, {"smiles": "COc1cc(/C=C2\\SC(=S)N(CCC(=O)NC3CCCC3)C2=O)cc(OC)c1OC", "Potency": "inconclusive: 89.1 µM [inhibitor, single point]"}, {"smiles": "Cc1ccc(NC2CCCN(C(=O)c3c(C)noc3C)C2)cc1C", "note": "(stereo not given)", "Potency": "inconclusive: 50.1 µM [inhibitor, single point]"}, {"smiles": "COc1cccc2c1N1C(=O)c3c(C(=O)O)cccc3C1CC2(C)C", "note": "(stereo not given)", "Potency": "inconclusive: 12.6 µM [inhibitor, single point]"}, {"smiles": "COc1ccc(Br)cc1C(=O)Nc1ccccc1-c1ccccc1", "Potency": "inconclusive: 112 µM [inhibitor, partial curve, poor fit]"}, {"smiles": "Nc1nc(-c2c[nH]c3ccccc23)cs1", "Potency": "inactive"}, {"smiles": "COc1ccc2sc(-c3ccccc3OC)c(C#CCCO)c2c1", "Potency": "inconclusive: 100 µM [inhibitor, partial curve]"}, {"smiles": "Cc1ccc2c(ccc[n+]2CC(=O)c2ccccc2)c1", "Potency": "inconclusive: 70.8 µM [inhibitor, single point]"}, {"smiles": "Cc1[nH]c(=S)c(C#N)c(-c2ccccc2)c1C(=O)Nc1ccccc1", "Potency": "inconclusive: 89.1 µM [inhibitor, partial curve]"}, {"smiles": "O=C1CCN(Cc2ccccc2)CCN1[C@H](CSc1ccccc1)Cc1ccccc1", "Potency": "inactive"}, {"smiles": "O=C(OCC(=O)N1CCN(C(=O)c2ccco2)CC1)c1cc(S(=O)(=O)Nc2ccc(Cl)cc2)ccc1O", "Potency": "inconclusive: 20 µM [inhibitor, single point]"}, {"smiles": "CCCCCC(=O)Nc1nc(C)c(-c2csc(Nc3cc(Cl)ccc3OC)n2)s1", "Potency": "inconclusive: 100 µM [inhibitor, single point]"}, {"smiles": "Cn1c(=O)c2c(ncn2CC(=O)N2CCCc3ccccc32)n(C)c1=O", "Potency": "inconclusive: 11.2 µM [inhibitor, single point]"}, {"smiles": "O=C(NCC(=O)N1CCN(C/C=C/c2ccccc2)CC1)c1ccc(Br)cc1", "Potency": "inconclusive: 22.4 µM [inhibitor, single point]"}, {"smiles": "COc1cccc(C(=O)N2CCN(Cc3ccc4c(c3)OCO4)CC2)c1OC", "Potency": "inactive"}, {"smiles": "O=C(O)C1CC(=O)N(CCc2ccc(F)cc2)C1", "note": "(stereo not given)", "Potency": "inconclusive: 10 µM [inhibitor, single point]"}, {"smiles": "CCn1nc(C)c(Oc2ccccc2O)c1C", "Potency": "inconclusive: 22.4 µM [inhibitor, single point]"}, {"smiles": "OCCNc1nc(N2CCN(c3ccccc3)CC2)nc2ccccc12", "Potency": "inconclusive: 8.91 µM [inhibitor, single point]"}, {"smiles": "O=C(O)CCN1C(=O)c2ccc(NC(=O)Cc3ccc(Cl)cc3)cc2C1=O", "Potency": "inactive"}, {"smiles": "COC(=O)c1sc(S(=O)(=O)N2CCC(C)CC2)c(C(=O)OC)c1C", "Potency": "inactive"}, {"smiles": "Cc1cccc(OCC(=O)Nc2nc(-c3ccncc3)cs2)c1", "Potency": "inconclusive: 28.2 µM [inhibitor, single point]"}, {"smiles": "COc1ccc(-c2sc3cc4c(cc3c2C#CC2(N)CCCCC2)OCO4)cc1", "Potency": "inconclusive: 891 µM [inhibitor, partial curve, poor fit]"}, {"smiles": "CCOC(=O)c1c(NC(=O)CSc2c[nH]c3ccccc23)sc2c1CCCC2", "Potency": "inconclusive: 100 µM [inhibitor, single point]"}, {"smiles": "CCOC(=O)C1CCN(C(=O)Cn2nc(CC)n3cccc3c2=O)CC1", "Potency": "inactive"}, {"smiles": "O=C(CN1C(=O)C2CCCCC2C1=O)Nc1cc([N+](=O)[O-])ccc1F", "note": "(stereo not given)", "Potency": "inactive"}, {"smiles": "Cn1c(=S)[nH]c2c(c1=O)C(C)(C)Cc1ccccc1-2", "Potency": "inconclusive: 631 µM [inhibitor, partial curve, poor fit]"}, {"smiles": "COC(=O)[C@@H]1[C@@H](C)N(Cc2ccccc2)C(=O)N[C@H]1c1cccc(C(F)(F)F)c1", "Potency": "inconclusive: 79.4 µM [inhibitor, single point]"}, {"smiles": "O=C(N=C1c2ccccc2CN1c1ccccc1)c1cccc([N+](=O)[O-])c1", "Potency": "inactive"}, {"smiles": "COc1ccc(C)cc1NC(=O)c1ccccc1NS(=O)(=O)c1cccc2cccnc12", "Potency": "inconclusive: 100 µM [inhibitor, single point]"}, {"smiles": "COc1ccc(-c2csc(Nc3ccccc3)[n+]2CC(O)c2ccc([N+](=O)[O-])cc2)cc1", "note": "(stereo not given)", "Potency": "inconclusive: 20 µM [inhibitor, single point]"}, {"smiles": "Cc1ccc(NC(=O)C2CCCN2C(=O)NCc2ccccc2)cc1", "note": "(stereo not given)", "Potency": "inconclusive: 89.1 µM [inhibitor, single point]"}, {"smiles": "CCOc1cc(CNc2ccc(N(C)C)cc2)cc(Br)c1OCC(=O)NC(C)(C)C", "Potency": "active: 25.1 µM"}]}]}
